Results as given in patent US20060172958A1, “Phospholipid scramblase 3” (priority 2003, published 2006).
No constants are given. Whether binding was seen depends on the method and setting. In cells and extracts the contact can be indirect. Some entries that bind do so weakly or less than the wild type. Tags and fused reporters may be left off the sequences shown.

The chains behind the UniProt entries cited, without tags or fusion partners. Where a name states a change or a piece, a line headed by the entry shows the natural chain unless it says otherwise.
UniProt Q9NRY6: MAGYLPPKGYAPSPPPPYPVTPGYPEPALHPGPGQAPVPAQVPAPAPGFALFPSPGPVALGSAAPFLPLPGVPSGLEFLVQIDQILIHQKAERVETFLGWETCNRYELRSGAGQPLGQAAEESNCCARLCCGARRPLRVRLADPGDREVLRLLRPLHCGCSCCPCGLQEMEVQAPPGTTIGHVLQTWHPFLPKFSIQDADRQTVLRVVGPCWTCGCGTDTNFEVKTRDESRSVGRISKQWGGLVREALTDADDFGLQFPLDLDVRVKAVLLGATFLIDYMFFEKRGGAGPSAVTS

Experiments:
[1] = target: phospholipid scramblase 3 alpha (PLS3α) (human) (UniProt Q9NRY6); experiment: co-immunoprecipitation from 293T cells with PLS3 antibody, Western blot with GFP antibody
[2] = target: phospholipid scramblase 3 alpha (PLS3α) (human) (UniProt Q9NRY6); experiment: restates the co-immunoprecipitation and yeast two-hybrid results
[3] = target: phospholipid scramblase 3 alpha (PLS3α) (human) (UniProt Q9NRY6); experiment: co-immunoprecipitation from 293T cell lysates with polyclonal PLS3 antibody, Western blot with EGFP monoclonal antibody

Measured: binding

B1: EGFP-Bcl-B fusion protein (protein, human, UniProt Q9HD36 1-204, looked up, not shown: large carriers)
chain: MVDQLRERTTMADPLRERTELLLADYLGYCAREPGTPEPAPSTPEAAVLRSAAARLRQIHRSFFSAYLGYPGNRFELVALMADSVLSDSPGPTWGRVVTLVTFAGTLLERGPLVTARWKKWGFQPRLKEQEGDVARDCQRLVALLSSRLMGQHRAWLQAQGGWDGFCHFFRTPFPLAFWRKQLVQAFLSCLLTTAFIYLWTRLL
binds: all assays above
